Results are given in words; binding and its absence hold for the method and conditions named. Some results given as binding are weak or reduced against the parent protein; the word gives no strength.
Molecular target: T1, DMC1 (UniProt Q14565)
T1 sequence: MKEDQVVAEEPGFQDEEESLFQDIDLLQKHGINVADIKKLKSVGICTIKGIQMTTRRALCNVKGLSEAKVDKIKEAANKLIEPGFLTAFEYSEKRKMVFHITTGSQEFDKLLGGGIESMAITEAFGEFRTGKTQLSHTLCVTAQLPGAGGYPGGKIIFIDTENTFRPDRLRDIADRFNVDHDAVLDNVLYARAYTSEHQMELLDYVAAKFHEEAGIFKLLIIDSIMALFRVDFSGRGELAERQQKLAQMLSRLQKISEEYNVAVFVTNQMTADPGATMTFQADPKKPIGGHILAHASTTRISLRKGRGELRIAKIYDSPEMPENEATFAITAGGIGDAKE
Assay: native gel or EMSA

B1: human FIGNL1ΔN (FIGNL1 without the N-terminal 284 aa) (domain or fragment, UniProt Q6PIW4 285-674)
chain: GPKEDSSLPTFKTAKEQLWVDQQKKYHQPQRASGSSYGGVKKSLGASRSRGILGKFVPPIPKQDGGEQNGGMQCKPYGAGPTEPAHPVDERLKNLEPKMIELIMNEIMDHGPPVNWEDIAGVEFAKATIKEIVVWPMLRPDIFTGLRGPPKGILLFGPPGTGKTLIGKCIASQSGATFFSISASSLTSKWVGEGEKMVRALFAVARCQQPAVIFIDEIDSLLSQRGDGEHESSRRIKTEFLVQLDGATTSSEDRILVVGATNRPQEIDEAARRRLVKRLYIPLPEASARKQIVINLMSKEQCCLSEEEIEQIVQQSDAFSGADMTQLCREASLGPIRSLQTADIATITPDQVRPIAYIDFENAFRTVRPSVSPKDLELYENWNKTFGCGK
binding: binds

— publication doi:10.1101/2023.05.17.541096 (bioRxiv, 2023)
